Measurements published in paper PMC7906818.
Results are given in words; binding and its absence hold for the method and conditions named. Binding seen in cells or lysates may run through a third protein. Some results given as binding are weak or reduced against the parent protein; the word gives no strength.

Legend:
[1] = target: T1, General control of amino acid synthesis 5-like 1 (human (endogenous in HK-2)) (UniProt P78537); experiment: proximity ligation; in situ PLA (Duolink) in TECs with mouse anti-GCN5L1 and anti-MnSOD antibodies; fluorescence microscopy
T1 sequence: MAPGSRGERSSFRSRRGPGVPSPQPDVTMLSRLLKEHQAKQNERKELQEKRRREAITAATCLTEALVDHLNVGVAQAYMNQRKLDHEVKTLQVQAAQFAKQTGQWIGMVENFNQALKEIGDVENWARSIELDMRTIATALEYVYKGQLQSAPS

[2] = target: T1, General control of amino acid synthesis 5-like 1 (human (endogenous in HK-2)); experiment: co-IP; 1 mg cell lysate of TECs incubated with 10 ug antibody and 10 ul protein A/G resin at 4 C overnight; eluted and analysed by western blotting

- binding [1]: binds
- binding [2]: binds
B1: manganese superoxide dismutase (enzyme, UniProt P04179 25-222)
chain: KHSLPDLPYDYGALEPHINAQIMQLHHSKHHAAYVNNLNVTEEKYQEALAKGDVTAQIALQPALKFNGGGHINHSIFWTNLSPNGGGEPKGELLEAIKRDFGSFDKFKEKLTAASVGVQGSGWGWLGFNKERGHLQIAACPNQDPLQGTTGLIPLLGIDVWEHAYYLQYKNVRPDYLKAIWNVINWENVTERYMACKK
